Results are given in words; binding and its absence hold for the method and conditions named. Binding seen in cells or lysates may run through a third protein. Binding calls can cover weak binding; strength is not graded here. Where a sequence is shown, tags or fusion partners need not be part of it.
Molecular target: PNPAR tagged with the C-terminal part of YFP (Arabidopsis thaliana)
Assay: split reporter

- binding: binds
B1: truncated PNP-A (Met1 to Tyr69) tagged with the N-terminal part of YFP (domain or fragment, UniProt Q9ZV52 26-69)
chain: AQGKAVYYDPPYTRSACYGTQRETLVVGVKNNLWQNGRACGRRY

Reference: paper doi:10.1101/592881
